# Source: the supplement of paper PMC10849652
# The chains behind the UniProt entries cited, without tags or fusion partners. Where a name states a change or a piece, a line headed by the entry shows the natural chain unless it says otherwise.
# UniProt Q9H2J4: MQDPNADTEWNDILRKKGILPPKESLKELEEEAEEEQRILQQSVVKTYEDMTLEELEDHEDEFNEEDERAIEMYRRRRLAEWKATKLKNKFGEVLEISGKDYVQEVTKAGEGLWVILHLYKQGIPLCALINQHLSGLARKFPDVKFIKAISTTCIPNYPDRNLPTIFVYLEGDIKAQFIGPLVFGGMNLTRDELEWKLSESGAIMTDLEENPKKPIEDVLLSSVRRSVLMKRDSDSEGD
# UniProt P57721, whole entry, looked up: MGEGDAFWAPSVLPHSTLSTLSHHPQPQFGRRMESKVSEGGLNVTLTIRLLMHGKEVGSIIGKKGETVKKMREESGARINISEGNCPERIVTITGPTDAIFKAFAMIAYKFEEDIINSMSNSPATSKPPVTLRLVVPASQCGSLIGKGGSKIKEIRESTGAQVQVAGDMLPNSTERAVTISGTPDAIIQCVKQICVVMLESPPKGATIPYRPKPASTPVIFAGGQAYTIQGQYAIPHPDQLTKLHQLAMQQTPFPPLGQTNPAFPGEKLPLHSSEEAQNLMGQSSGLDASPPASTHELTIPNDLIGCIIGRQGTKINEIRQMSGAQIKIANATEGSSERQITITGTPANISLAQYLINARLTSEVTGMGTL
# UniProt Q01813: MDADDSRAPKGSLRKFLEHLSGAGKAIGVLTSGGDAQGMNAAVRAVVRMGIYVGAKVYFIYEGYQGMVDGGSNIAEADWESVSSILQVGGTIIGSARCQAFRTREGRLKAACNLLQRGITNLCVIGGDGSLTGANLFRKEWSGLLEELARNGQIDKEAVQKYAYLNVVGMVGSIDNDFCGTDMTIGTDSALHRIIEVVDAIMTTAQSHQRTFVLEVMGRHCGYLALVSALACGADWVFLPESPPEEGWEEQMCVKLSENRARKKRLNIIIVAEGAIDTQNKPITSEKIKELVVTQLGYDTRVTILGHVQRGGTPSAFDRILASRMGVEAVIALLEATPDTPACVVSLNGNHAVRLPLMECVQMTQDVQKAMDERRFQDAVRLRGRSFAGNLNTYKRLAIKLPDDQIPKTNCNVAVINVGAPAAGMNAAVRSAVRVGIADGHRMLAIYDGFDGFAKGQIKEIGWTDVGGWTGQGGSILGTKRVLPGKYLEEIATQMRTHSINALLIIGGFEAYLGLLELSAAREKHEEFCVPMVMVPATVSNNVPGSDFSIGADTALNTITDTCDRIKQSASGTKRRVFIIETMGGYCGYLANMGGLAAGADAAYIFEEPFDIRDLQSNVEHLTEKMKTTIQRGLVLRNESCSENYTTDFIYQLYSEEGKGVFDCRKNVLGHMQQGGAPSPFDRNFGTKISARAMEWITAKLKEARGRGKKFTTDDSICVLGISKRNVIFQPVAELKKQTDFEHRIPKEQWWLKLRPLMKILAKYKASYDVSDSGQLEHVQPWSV
# UniProt O60925, whole entry, looked up: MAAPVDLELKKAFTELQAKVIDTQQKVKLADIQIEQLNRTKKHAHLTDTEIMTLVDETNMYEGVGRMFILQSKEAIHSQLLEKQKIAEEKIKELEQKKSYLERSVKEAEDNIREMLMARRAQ
# UniProt Q9UHV9, whole entry, looked up: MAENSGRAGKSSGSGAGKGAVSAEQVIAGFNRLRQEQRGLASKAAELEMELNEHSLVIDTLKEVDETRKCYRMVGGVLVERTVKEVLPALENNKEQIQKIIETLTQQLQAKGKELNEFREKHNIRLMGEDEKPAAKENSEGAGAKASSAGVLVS
# UniProt Q7L3T8: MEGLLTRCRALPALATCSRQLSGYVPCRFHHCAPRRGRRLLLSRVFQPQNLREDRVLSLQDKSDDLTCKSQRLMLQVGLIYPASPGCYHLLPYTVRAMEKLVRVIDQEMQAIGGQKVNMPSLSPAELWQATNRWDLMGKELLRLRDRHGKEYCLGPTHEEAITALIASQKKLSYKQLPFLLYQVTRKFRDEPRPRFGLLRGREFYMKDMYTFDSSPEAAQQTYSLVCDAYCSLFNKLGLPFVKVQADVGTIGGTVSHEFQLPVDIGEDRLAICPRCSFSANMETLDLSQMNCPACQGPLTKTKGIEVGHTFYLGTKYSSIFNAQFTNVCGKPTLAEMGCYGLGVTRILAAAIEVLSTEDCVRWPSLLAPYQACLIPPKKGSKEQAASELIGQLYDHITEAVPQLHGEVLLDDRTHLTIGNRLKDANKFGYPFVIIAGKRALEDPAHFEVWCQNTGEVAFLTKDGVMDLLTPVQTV
# UniProt Q8WUM4: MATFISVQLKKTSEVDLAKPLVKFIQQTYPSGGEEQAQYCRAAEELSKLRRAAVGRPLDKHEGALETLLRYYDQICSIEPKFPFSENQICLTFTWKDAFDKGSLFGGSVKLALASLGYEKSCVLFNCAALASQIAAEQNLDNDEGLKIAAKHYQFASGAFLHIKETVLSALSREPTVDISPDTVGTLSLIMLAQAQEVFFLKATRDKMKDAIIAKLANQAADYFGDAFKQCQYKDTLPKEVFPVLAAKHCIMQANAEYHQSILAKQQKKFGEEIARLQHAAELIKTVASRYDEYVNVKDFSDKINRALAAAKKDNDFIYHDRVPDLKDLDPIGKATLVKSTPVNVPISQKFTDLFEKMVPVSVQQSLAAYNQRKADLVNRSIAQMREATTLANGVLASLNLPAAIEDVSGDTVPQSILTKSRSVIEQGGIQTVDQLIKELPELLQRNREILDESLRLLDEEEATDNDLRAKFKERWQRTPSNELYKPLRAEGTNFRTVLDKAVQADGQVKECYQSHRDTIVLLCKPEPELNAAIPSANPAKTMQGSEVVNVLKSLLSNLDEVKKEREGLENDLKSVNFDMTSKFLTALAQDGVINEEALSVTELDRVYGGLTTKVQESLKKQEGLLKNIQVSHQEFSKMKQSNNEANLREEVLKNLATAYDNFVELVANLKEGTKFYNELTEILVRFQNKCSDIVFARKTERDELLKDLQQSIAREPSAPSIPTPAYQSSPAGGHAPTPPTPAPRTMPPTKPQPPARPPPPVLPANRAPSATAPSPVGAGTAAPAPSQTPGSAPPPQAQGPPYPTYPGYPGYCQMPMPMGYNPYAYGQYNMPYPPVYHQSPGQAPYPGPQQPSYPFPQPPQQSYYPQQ
# UniProt P07737, whole entry, looked up: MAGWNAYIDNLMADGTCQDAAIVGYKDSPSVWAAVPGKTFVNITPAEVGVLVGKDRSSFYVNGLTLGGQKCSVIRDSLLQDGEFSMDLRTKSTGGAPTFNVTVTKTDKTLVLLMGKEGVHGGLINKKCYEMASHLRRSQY
# UniProt O95613: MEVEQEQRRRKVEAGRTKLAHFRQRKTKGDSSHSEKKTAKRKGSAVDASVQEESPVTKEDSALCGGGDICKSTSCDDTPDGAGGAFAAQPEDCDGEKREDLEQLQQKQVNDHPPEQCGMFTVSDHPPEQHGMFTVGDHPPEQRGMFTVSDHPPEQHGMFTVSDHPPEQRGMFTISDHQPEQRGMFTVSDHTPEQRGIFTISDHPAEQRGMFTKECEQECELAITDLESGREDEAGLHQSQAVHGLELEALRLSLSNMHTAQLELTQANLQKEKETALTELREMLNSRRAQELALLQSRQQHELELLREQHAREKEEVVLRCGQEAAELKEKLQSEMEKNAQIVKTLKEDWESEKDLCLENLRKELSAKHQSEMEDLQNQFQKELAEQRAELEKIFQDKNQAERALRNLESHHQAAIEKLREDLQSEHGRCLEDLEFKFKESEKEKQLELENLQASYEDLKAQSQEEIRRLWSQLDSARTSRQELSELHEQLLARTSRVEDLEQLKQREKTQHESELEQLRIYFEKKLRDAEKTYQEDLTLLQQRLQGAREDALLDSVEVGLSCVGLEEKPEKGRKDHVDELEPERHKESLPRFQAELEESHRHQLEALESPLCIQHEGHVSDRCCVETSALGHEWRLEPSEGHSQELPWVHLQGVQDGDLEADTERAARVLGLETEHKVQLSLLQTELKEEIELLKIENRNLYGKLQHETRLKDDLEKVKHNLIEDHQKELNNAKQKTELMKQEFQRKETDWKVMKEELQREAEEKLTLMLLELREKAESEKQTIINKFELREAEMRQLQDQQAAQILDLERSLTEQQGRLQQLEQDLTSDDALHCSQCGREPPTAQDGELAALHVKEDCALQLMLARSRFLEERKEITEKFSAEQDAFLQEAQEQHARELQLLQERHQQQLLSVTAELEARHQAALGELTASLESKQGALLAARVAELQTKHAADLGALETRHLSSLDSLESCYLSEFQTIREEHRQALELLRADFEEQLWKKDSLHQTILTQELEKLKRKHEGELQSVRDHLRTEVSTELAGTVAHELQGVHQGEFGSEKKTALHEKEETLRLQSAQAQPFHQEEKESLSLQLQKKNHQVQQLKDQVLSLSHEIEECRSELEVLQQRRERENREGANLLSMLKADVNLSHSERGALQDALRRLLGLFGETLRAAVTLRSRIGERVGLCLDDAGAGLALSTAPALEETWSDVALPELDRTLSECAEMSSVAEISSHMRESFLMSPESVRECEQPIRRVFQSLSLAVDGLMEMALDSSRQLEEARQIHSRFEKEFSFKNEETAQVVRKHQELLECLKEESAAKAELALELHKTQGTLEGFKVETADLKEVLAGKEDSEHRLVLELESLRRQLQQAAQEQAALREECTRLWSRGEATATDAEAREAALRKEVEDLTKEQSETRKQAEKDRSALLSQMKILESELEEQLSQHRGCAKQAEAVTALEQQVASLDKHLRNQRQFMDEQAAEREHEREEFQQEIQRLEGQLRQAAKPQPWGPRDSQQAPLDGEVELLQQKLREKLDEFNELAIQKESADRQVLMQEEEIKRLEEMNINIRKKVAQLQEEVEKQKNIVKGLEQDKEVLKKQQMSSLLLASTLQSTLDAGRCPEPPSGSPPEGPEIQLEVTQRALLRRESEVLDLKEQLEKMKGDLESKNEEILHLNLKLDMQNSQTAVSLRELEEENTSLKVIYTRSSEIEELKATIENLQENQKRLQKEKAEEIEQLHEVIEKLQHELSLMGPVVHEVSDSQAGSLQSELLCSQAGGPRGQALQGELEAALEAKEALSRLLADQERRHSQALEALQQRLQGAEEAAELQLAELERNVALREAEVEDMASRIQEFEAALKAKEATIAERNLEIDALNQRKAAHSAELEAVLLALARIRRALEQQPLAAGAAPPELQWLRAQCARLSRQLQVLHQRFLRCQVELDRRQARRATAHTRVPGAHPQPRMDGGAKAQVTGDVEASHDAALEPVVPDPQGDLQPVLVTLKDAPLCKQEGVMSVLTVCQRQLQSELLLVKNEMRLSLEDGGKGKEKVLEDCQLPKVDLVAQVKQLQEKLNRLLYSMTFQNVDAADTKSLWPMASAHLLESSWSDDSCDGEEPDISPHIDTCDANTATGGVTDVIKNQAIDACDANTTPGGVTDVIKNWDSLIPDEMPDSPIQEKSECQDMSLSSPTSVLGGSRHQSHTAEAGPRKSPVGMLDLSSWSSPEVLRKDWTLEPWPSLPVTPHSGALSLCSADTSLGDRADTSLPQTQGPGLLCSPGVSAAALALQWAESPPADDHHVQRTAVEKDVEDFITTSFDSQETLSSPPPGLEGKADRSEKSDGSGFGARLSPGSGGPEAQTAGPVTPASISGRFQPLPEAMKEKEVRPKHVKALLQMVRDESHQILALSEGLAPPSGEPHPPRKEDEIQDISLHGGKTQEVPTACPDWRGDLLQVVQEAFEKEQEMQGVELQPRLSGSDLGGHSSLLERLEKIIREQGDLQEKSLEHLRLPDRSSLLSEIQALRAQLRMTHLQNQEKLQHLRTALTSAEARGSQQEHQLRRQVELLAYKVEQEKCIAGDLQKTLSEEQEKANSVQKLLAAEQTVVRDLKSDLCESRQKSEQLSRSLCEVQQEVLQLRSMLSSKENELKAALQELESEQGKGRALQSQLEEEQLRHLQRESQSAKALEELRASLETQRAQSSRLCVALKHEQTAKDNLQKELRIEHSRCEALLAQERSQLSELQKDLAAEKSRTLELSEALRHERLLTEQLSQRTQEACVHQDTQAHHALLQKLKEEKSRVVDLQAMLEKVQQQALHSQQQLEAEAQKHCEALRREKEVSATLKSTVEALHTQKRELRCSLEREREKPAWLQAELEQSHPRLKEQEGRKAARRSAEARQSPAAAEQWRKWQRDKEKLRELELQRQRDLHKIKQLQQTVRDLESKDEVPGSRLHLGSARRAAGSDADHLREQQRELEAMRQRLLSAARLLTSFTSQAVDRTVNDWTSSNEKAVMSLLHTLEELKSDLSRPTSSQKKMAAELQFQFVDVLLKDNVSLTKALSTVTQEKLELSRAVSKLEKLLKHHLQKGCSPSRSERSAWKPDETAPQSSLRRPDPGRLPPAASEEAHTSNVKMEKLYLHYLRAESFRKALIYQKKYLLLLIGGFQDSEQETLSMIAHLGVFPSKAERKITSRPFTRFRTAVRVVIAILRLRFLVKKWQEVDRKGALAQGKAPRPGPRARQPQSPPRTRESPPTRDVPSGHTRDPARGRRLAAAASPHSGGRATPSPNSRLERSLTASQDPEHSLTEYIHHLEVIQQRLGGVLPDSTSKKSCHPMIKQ
# The list shows a part of the results.
# Assays:
# Assay in all cases: log2 fold change, soluble protein after heating vs DMSO (PISA); higher = thermal stabilisation; K562 lysate, 10 uM; active = over 0.2 and 3.5 SD of the protein, either way, in both replicates (recomputed)
# vemurafenib = compound: CCCS(=O)(=O)Nc1ccc(F)c(C(=O)c2c[nH]c3ncc(-c4ccc(Cl)cc4)cc23)c1F [vemurafenib]
# Procedure, shortened: (§1)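 Dounce homogenisation of K562 pellets in PBS pH 7.4 with 1 mM MgCl2 produced a crude extract, used at 1 mg/mL protein. Exposure to 10 μM compound lasted 30 min, and aliquots were then heated for 3 min across 48°C-58°C, pooled and brought to 0.5% NP-40 at 4°C. The supernatant after 21,000xg for 90 min was quantified by TMTpro 16plex LC-MS/MS with channel sums equalised. Duplicate values are given as log-two fold change in thermal stability relative to solvent controls.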
# [1] = compound: CCCS(=O)(=O)Nc1ccc(F)c(C(=O)c2c[nH]c3ncc(Cl)cc23)c1F
# Procedure, shortened: as §1
# barasertib = compound: CCN(CCCOc1ccc2c(Nc3cc(CC(=O)Nc4cccc(F)c4)[nH]n3)ncnc2c1)CCOP(=O)(O)O [barasertib]
# Procedure, shortened: as §1
# [2] = compound: CC[C@@H]1C(=O)N(C)c2cnc(Nc3ccc(C(=O)NC4CCN(C)CC4)cc3OC)nc2N1C1CCCC1
# Procedure, shortened: as §1
# volasertib = compound: CC[C@@H]1C(=O)N(C)c2cnc(Nc3ccc(C(=O)N[C@H]4CC[C@H](N5CCN(CC6CC6)CC5)CC4)cc3OC)nc2N1C(C)C [volasertib]
# Procedure, shortened: as §1
# [3] = compound: CCn1c(C(=O)N(C2CC2)C2CC2)cc2c3c(ncn3C)c(Nc3cc(C)n(C)n3)nc21
# Procedure, shortened: as §1
# [4] = compound: CCn1cc(-c2ccnc3[nH]c(-c4cccc(CN(C)C)c4)cc23)c(-c2ccc(NC(=O)N(C)C)cc2)n1
# Procedure, shortened: as §1
# [5] = compound: CN1CCC(CNc2ccc3ncc(-c4cccc(OC(F)(F)F)c4)n3n2)CC1
# Procedure, shortened: as §1
# saracatinib = compound: CN1CCN(CCOc2cc(OC3CCOCC3)c3c(Nc4c(Cl)ccc5c4OCO5)ncnc3c2)CC1 [saracatinib]
# Procedure, shortened: as §1
# sotrastaurin = compound: CN1CCN(c2nc(C3=C(c4c[nH]c5ccccc45)C(=O)NC3=O)c3ccccc3n2)CC1 [sotrastaurin]
# Procedure, shortened: as §1
# alvocidib = compound: CN1CC[C@H](c2c(O)cc(O)c3c(=O)cc(-c4ccccc4Cl)oc23)[C@H](O)C1 [alvocidib]
# Procedure, shortened: as §1
# Tubastatin A = compound: CN1CCc2c(c3ccccc3n2Cc2ccc(C(=O)NO)cc2)C1 [Tubastatin A]
# Procedure, shortened: as §1
# [6] = compound: CNC(=O)C1=CC=CC=C1NC2=NC(=NC=C2Cl)NC3=C(C=C(C=C3)N4CCOCC4)OC
# Procedure, shortened: as §1
# defactinib = compound: CNC(=O)c1ccc(Nc2ncc(C(F)(F)F)c(NCc3nccnc3N(C)S(C)(=O)=O)n2)cc1 [defactinib]
# Procedure, shortened: as §1
# [7] = compound: CNc1nc(-c2ccc3c(N)n[nH]c3c2)cc(N2C[C@@H](C(=O)NC3CCCCC3)CC[C@H]2C)n1
# Procedure, shortened: as §1
# encorafenib = compound: COC(=O)N[C@@H](C)CNc1nccc(-c2cn(C(C)C)nc2-c2cc(Cl)cc(NS(C)(=O)=O)c2F)n1 [encorafenib]
# Procedure, shortened: as §1
# [8] = compound: COC(=O)[C@H](CCSC)NC(=O)C1=C(C=C(C=C1)NC[C@H](CS)N)C2=CC=CC=C2
# Procedure, shortened: as §1
# alisertib = compound: COc1cc(Nc2ncc3c(n2)-c2ccc(Cl)cc2C(c2c(F)cccc2OC)=NC3)ccc1C(=O)O [alisertib]
# Procedure, shortened: as §1
# [9] = compound: COc1cc2nc(-c3cc(F)ccc3O)nc(N[C@@H]3CNC[C@H]3C(C)(C)O)c2cc1OC
# Procedure, shortened: as §1
# gefitinib = compound: COc1cc2ncnc(Nc3ccc(F)c(Cl)c3)c2cc1OCCCN1CCOCC1 [gefitinib]
# Procedure, shortened: as §1
Target,log2 fold change (vemurafenib),log2 fold change [1],log2 fold change (barasertib),log2 fold change [2],log2 fold change (volasertib),log2 fold change [3],log2 fold change [4],log2 fold change [5],log2 fold change (saracatinib),log2 fold change (sotrastaurin),log2 fold change (alvocidib),log2 fold change (Tubastatin A),log2 fold change [6],log2 fold change (defactinib),log2 fold change [7],log2 fold change (encorafenib),log2 fold change [8],log2 fold change (alisertib),log2 fold change [9],log2 fold change (gefitinib)
PECAM1 (UniProt P16284),inactive: 0.007,inactive: 0.035,inactive: 0.074,inactive: 0.033,inactive: 0.024,inactive: -0.019,inactive: -0.043,inactive: 0.071,inactive: 0.018,inactive: -0.002,inactive: -0.05,inactive: 0.043,inactive: 0.012,inactive: 0.025,inactive: 0.054,inactive: 0.004,inactive: -0.049,inactive: -0.039,inactive: -0.007,inactive: -0.052
PDCL3 (UniProt Q9H2J4),inactive: 0.052,inactive: 0,inactive: -0.038,inactive: 0.045,inactive: 0.023,inactive: -0.017,inactive: -0.059,inactive: 0.02,inactive: -0.016,inactive: 0.009,inactive: -0.005,inactive: 0.066,inactive: 0.008,inactive: -0.026,inactive: 0.102,inactive: -0.033,inactive: -0.01,inactive: -0.011,inactive: 0.014,inactive: -0.018
PDS5A (UniProt Q29RF7),inactive: 0.023,inactive: 0.031,inactive: 0.064,inactive: -0.057,inactive: -0.029,inactive: 0.054,inactive: -0.12,inactive: -0.019,inactive: 0.007,inactive: 0.026,inactive: 0.023,inactive: -0.21,inactive: 0.016,inactive: 0.016,inactive: -0.054,inactive: 0.048,inactive: -0.003,inactive: 0.014,inactive: 0,inactive: -0.005
PDIA4 (UniProt P13667),inactive: -0.007,inactive: -0.02,inactive: -0.028,inactive: 0.017,inactive: 0.012,inactive: -0.008,inactive: 0.036,inactive: -0.045,inactive: 0.012,inactive: 0,inactive: 0.025,inactive: 0.05,inactive: -0.008,inactive: -0.042,inactive: -0.012,inactive: -0.011,inactive: -0.027,inactive: -0.007,inactive: -0.001,inactive: -0.011
PDPK1 (UniProt O15530),inactive: -0.03,inactive: -0.002,inactive: -0.027,inactive: -0.06,inactive: -0.047,inactive: 0.012,inactive: 0.041,inactive: -0.017,inactive: -0.025,inactive: 0.133,inactive: 0.009,inactive: -0.121,inactive: 0.107,inactive: 0.21,active: 0.501,inactive: -0.019,inactive: 0.109,inactive: 0.153,inactive: 0.15,inactive: 0.016
PCBP3 (UniProt P57721),inactive: 0.021,inactive: -0.007,inactive: -0.007,inactive: -0.003,inactive: 0.006,inactive: -0.011,inactive: -0.062,inactive: 0.032,inactive: 0.014,inactive: -0.047,inactive: -0.015,inactive: 0.005,inactive: 0.022,inactive: -0.039,inactive: 0.042,inactive: -0.006,inactive: -0.023,inactive: 0.019,inactive: 0.015,inactive: -0.023
PFKP (UniProt Q01813),inactive: -0.047,inactive: -0.056,inactive: 0.018,inactive: -0.005,inactive: 0.015,inactive: -0.007,inactive: 0.052,inactive: -0.033,inactive: 0.008,inactive: -0.025,inactive: 0.019,inactive: 0.031,inactive: 0.029,inactive: -0.009,inactive: -0.016,inactive: -0.041,inactive: -0.001,inactive: -0.004,inactive: 0.009,inactive: -0.006
PFDN1 (UniProt O60925),inactive: -0.035,inactive: -0.052,inactive: 0.1,inactive: 0.01,inactive: 0.086,inactive: 0.07,inactive: 0.05,inactive: -0.134,inactive: 0.021,inactive: -0.053,inactive: 0.116,inactive: 0.086,inactive: 0.055,inactive: 0.054,inactive: -0.023,inactive: -0.039,inactive: -0.019,inactive: 0.059,inactive: -0.044,inactive: -0.146
PFDN2 (UniProt Q9UHV9),inactive: -0.049,inactive: 0,inactive: 0.064,inactive: -0.022,inactive: 0.029,inactive: 0.082,active: 0.471,inactive: -0.049,inactive: 0.009,inactive: 0.039,inactive: 0.063,inactive: 0.01,inactive: -0.035,inactive: 0.026,inactive: -0.012,inactive: 0.05,inactive: -0.025,inactive: 0.033,inactive: 0.007,inactive: 0.012
PARS2 (UniProt Q7L3T8),inactive: -0.028,inactive: 0.002,inactive: 0.015,inactive: -0.031,inactive: -0.004,inactive: 0.009,inactive: 0.061,inactive: -0.021,inactive: -0.046,inactive: -0.006,inactive: 0.015,inactive: -0.012,inactive: 0.046,inactive: 0.008,inactive: 0.039,inactive: 0.025,inactive: -0.099,inactive: -0.019,inactive: -0.001,inactive: 0.014
PDCD6IP isoform 2 (UniProt Q8WUM4),inactive: -0.018,inactive: -0.005,inactive: -0.008,inactive: -0.036,inactive: -0.022,inactive: 0.032,inactive: 0.071,inactive: -0.054,inactive: 0.011,inactive: 0.003,inactive: 0.033,inactive: -0.088,inactive: -0.005,inactive: -0.022,inactive: -0.02,inactive: -0.01,inactive: 0.188,inactive: 0.014,inactive: 0.003,inactive: -0.003
PCID2 (UniProt Q5JVF3),inactive: 0.033,inactive: 0.052,inactive: 0.063,inactive: -0.01,inactive: -0.044,inactive: 0.031,inactive: 0.035,inactive: 0.005,inactive: 0.01,inactive: 0.036,inactive: 0,inactive: -0.084,inactive: -0.034,inactive: 0.024,inactive: -0.042,inactive: 0.08,inactive: -0.066,inactive: -0.012,inactive: 0.01,inactive: -0.009
PFN1 (UniProt P07737),inactive: -0.01,inactive: -0.01,inactive: 0.012,inactive: 0.02,inactive: 0.015,inactive: 0.02,inactive: -0.02,inactive: 0.028,inactive: -0.004,inactive: -0.005,inactive: -0.002,inactive: -0.01,inactive: -0.007,inactive: 0.006,inactive: -0.024,inactive: -0.005,inactive: -0.097,inactive: 0.004,inactive: -0.013,inactive: 0.004
PDZD11 isoform 2 (UniProt Q5EBL8),inactive: -0.006,inactive: 0.02,inactive: 0.129,inactive: 0.079,inactive: 0.022,inactive: -0.04,inactive: -0.026,inactive: 0.004,inactive: 0.011,inactive: -0.014,inactive: 0.005,inactive: 0.082,inactive: 0.02,inactive: 0.128,inactive: 0.058,inactive: 0.043,inactive: 0.024,inactive: -0.02,inactive: -0.004,inactive: -0.081
PCNT (UniProt O95613),inactive: 0,inactive: 0,inactive: 0.037,inactive: 0.02,inactive: -0.012,inactive: -0.003,inactive: -0.196,inactive: 0.028,inactive: 0.014,inactive: 0.023,inactive: -0.093,inactive: -0.061,inactive: -0.017,inactive: -0.009,inactive: 0.015,inactive: 0.015,inactive: -0.029,inactive: 0.007,inactive: 0.008,inactive: 0.019
PDCD6 (UniProt O75340),inactive: 0.027,inactive: 0.002,inactive: 0.28,inactive: -0.02,inactive: -0.004,inactive: 0.007,inactive: -0.043,inactive: -0.033,inactive: -0.012,inactive: -0.025,inactive: 0.038,inactive: 0.048,inactive: 0.01,inactive: 0.053,inactive: 0.047,inactive: -0.013,inactive: 0.003,inactive: 0.024,inactive: -0.002,inactive: -0.02

# Some of the entries above in a different format.
Target | log2 fold change (vemurafenib) | log2 fold change [1] | log2 fold change (barasertib) | log2 fold change [2] | log2 fold change (volasertib) | log2 fold change [3] | log2 fold change [4] | log2 fold change [5] | log2 fold change (saracatinib) | log2 fold change (sotrastaurin) | log2 fold change (alvocidib) | log2 fold change (Tubastatin A) | log2 fold change [6] | log2 fold change (defactinib) | log2 fold change [7] | log2 fold change (encorafenib) | log2 fold change [8] | log2 fold change (alisertib) | log2 fold change [9] | log2 fold change (gefitinib)
PDPK1 (UniProt O15530) | inactive: -0.03 | inactive: -0.002 | inactive: -0.027 | inactive: -0.06 | inactive: -0.047 | inactive: 0.012 | inactive: 0.041 | inactive: -0.017 | inactive: -0.025 | inactive: 0.133 | inactive: 0.009 | inactive: -0.121 | inactive: 0.107 | inactive: 0.21 | active: 0.501 | inactive: -0.019 | inactive: 0.109 | inactive: 0.153 | inactive: 0.15 | inactive: 0.016
PCBP3 (UniProt P57721) | inactive: 0.021 | inactive: -0.007 | inactive: -0.007 | inactive: -0.003 | inactive: 0.006 | inactive: -0.011 | inactive: -0.062 | inactive: 0.032 | inactive: 0.014 | inactive: -0.047 | inactive: -0.015 | inactive: 0.005 | inactive: 0.022 | inactive: -0.039 | inactive: 0.042 | inactive: -0.006 | inactive: -0.023 | inactive: 0.019 | inactive: 0.015 | inactive: -0.023
